Drawing on paper PMC4598845, this text covers binding for 3 molecules.

By UniProt entry, the sequences of proteins in these tests, tags left out. Residues count along the entry.
UniProt P08603, residues 19-1231: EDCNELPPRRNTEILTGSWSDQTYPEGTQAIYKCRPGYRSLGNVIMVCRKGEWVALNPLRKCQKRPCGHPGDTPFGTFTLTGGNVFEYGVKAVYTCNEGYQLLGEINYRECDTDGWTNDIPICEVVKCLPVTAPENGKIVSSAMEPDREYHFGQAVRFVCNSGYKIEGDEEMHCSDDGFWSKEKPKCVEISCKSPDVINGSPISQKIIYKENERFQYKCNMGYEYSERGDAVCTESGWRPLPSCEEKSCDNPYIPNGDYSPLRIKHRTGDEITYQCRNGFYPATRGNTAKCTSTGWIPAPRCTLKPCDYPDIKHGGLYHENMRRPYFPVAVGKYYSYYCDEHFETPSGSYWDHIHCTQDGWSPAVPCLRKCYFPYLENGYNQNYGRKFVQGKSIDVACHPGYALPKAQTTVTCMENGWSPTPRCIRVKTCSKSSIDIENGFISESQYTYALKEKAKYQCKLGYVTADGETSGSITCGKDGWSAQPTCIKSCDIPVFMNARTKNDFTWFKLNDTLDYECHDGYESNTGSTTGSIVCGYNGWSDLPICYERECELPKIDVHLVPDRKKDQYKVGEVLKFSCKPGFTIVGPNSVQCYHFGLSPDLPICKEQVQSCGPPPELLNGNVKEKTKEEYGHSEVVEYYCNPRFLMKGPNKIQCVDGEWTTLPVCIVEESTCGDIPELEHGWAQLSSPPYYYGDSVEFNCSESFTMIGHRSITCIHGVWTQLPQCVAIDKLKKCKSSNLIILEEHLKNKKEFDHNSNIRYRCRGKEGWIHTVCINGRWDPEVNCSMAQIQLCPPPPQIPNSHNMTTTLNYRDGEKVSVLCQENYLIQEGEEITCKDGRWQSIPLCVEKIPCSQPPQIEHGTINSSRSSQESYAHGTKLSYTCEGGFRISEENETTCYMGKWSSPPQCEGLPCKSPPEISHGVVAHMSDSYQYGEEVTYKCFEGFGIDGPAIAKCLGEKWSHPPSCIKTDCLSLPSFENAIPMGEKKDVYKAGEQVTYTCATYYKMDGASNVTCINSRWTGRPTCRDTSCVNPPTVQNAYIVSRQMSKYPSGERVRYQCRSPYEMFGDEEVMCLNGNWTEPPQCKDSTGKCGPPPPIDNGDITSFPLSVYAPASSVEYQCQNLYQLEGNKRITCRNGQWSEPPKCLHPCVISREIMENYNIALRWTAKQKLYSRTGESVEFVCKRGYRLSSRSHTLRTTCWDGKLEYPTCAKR

Assay [1] addresses T1, recombinant human CTRP6 (C1q/TNF-related protein 6), Aviscera Bioscience (human) (UniProt Q9BXI9).
T1 sequence: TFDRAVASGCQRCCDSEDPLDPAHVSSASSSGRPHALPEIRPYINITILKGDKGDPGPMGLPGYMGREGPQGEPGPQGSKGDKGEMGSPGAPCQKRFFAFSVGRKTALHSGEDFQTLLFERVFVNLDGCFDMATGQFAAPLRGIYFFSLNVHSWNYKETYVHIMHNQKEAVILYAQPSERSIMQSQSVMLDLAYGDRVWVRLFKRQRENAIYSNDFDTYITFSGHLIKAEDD
In words: SPR; rhCTRP6 immobilised on a CM5 chip by amine coupling (about 100 RU); analyte C3(H2O) 0-500 nM or factor H; BIAcore 2000; 10 mM HEPES pH 7.4, 150 mM NaCl, 3 mM EDTA, 0.005% surfactant P20; 20 μl/min; both purified. (In general: Surface plasmon resonance follows binding to a sensor surface in real time, without labels.)

Assay [2] deals with mouse CTRP6 in serum (mouse (endogenous in C57BL/6 serum)) (UniProt Q6IR41). In words: SEC; 100 μl C57BL/6 mouse serum on 16/60 Sephacryl S-300 in PBS, 0.5 ml/min; CTRP6 in fractions by ELISA. Background: Size exclusion chromatography separates by hydrodynamic size, large species first.
Assay [3] deals with T1, recombinant human CTRP6 (C1q/TNF-related protein 6), Aviscera Bioscience (human). Put plainly: SEC; 1 μg/100 μl rhCTRP6 on 16/60 Sephacryl S-300 in PBS, 0.5 ml/min; both purified.

These are yes or no findings as the source states them, for the method shown. Some results given as binding are weak or reduced against the parent protein; the word gives no strength.

Regarding “human factor H (from UniProt P08603 19-1231)”, in assay [1], the binding result was “no binding”.

B1: mouse CTRP6 in serum (protein, UniProt Q6IR41 25-264)
chain: VPTEETTFGESVASHLPKGCRRCCDPEDLMSSDDTVQAPVSPYVLPEVRPYINITILKGDKGDRGPTGTPGKPGKNGTRGDRGSQGVKGDKGQAGSPGSSCQTHYSAFSVGRKTGLHSSENFLSLLFDRVFVNTDGHFDMATGSFVAPLRGLYFFSLNVHSWNYKETYVHIVHNEQAVVILYAQPSERSIMQSQSVMLPLVPGDRVWVRLFKRERENGIYSDDVDTYITFSGHLIKAEDN
As to B1, the binding entry in assay [2] was “binds”.

B2: recombinant human CTRP6 (C1q/TNF-related protein 6), Aviscera Bioscience (protein, UniProt Q9BXI9 47-278)
chain: T1 sequence
As to B2, in assay [3], the binding result is “no binding”.
